# Reference: PubChem BioAssay AID720541 (National Center for Advancing Translational Sciences (NCATS), 2013)
# The whole screen tested about 1,300 compounds, of which about 420 (32%) were called active. Inconclusive results, whose numbers are uncertain, are shown with a selection of clear calls. The call rests on the fitted dose curve; in most records, active means well fitted inhibition curve with a large enough effect; inconclusive means small, poorly fitted or top-dose-only effect; inactive means no such curve, though single readings can be large or run the other way. Potencies of inconclusive entries are doubtful fits and often do not repeat.
# Molecular target: C-terminal-binding protein 1 (Homo sapiens) (UniProt Q13363)
# Assay: qHTS for Inhibitors of the Phosphatase Activity of Eya2: Carboxyl-terminal binding protein (CtBP) Counterscreen for Cherry-picked Compounds; further: nearly all actives have a fitted effect of over 65% in size
# Settings: purified protein-protein binding, AlphaScreen, 3 h; series mostly up to 46.1 µM; activity change, negative = inhibition: at the top concentration
# Source text: The Eya protein family is an essential co-activator of the Six1 transcription factor. Six1 is a developmental gene that is abnormally re-expressed in a large percentage of breast cancers. This over-expression plays a causal role in the initiation and metastatic development of breast cancers. The Eya family of protein is also found to contain a unique HAD phosphatase domain with protein tyrosine phosphatase activity which can potentially play a role in Six1-mediated breast tumorigenesis. Recently, Eya2 is found to dephosphorylate the histone variant H2AX and direct cells towards DNA repair instead of apoptosis in the event of DNA damage.
# A 1536 well format, fluorescence based qHTS assay was developed and used to target the phosphatase activity of Eya2 (AID 488837). In addition, a CtBP counterscreen was developed using the AlphaScreen technology to evaluate compound selectivity to target […]. The data herein reports the activity of the cherry-picked compounds against the CtBP AlphaScreen. Compounds that are active or have > 100 fold selectivity vs. the Eya2 activity were excluded for further characterization. Inactivity is the desired outcome for the CtBP counterscreen.
# NIH Chemical Genomics Center [NCGC]
# NIH Molecular Libraries Probe Centers Network [MLPCN]
# Assay Submitter (PI): Rui Zhao, University of Colorado Denver
# Four microliters of reagent (25 nM GST-E1A, 25 nM CtBP-6x HIS) was dispensed in a 1536 well Greiner plates. Twenty-three nanoliter of test compounds (final concentration of 2.5 nM - 46 uM) and positive control E1A peptide inhibitor (final concentration of 0.14 nM - 4.6 uM) were added to the plates using the Kalypsys pintool equipped with a 1536 pin head. The plates was then incubated at room temperature for 2 hours followed by addition of 1 uL Alpha bead donor / acceptor mix (20 ug/mL final concentration). The assay plates were incubated for additional 1 hour at room temperature and protected from light. The AlphaScreen signal was obtained using the PerkinElmer EnVision plate reader using the 680 nm excitation and 520 - 620 nm emission filters. The data was normalized to the E1A peptide inhibitor for maximum inhibition and DMSO treated wells as negative control.
# On the % scale 0 is the no-effect control and ±100 the full control effect; potency means the concentration at half of the fitted maximal effect.
SMILES,Potency,"activity change, negative = inhibition"
CN(C)S(=O)(=O)c1ccc(C(=O)NNc2nc(-c3ccccc3)c3cc(Br)ccc3n2)cc1,active: 8.49 µM,–
CNc1ccc2nc3ccccc3[n+](C)c2c1,active: 8.49 µM,–
CCCCCSc1cc(OC)c(CCN)cc1OC,"inconclusive: 16.9 µM [inhibitor, partial curve]",–
CN1CC(C(=O)c2ccc(Cl)cc2)C(c2ccc(N(C)C)cc2)C1 (centres undefined),"inconclusive: 13.5 µM [inhibitor, partial curve]",–
Cc1cc(-c2cc(C)c(N)c(C)c2)cc(C)c1N,"inconclusive: 15.1 µM [inhibitor, single point]",–
Oc1ccc(Cl)c(Cl)c1Cl,"inconclusive: 15.1 µM [inhibitor, single point]",–
CCOc1ccc(N2C(=O)/C(=C/c3ccc(C)o3)C(=O)NC2=S)cc1,–,inactive: -16.5%
COC(=O)C1=C(c2ccc(F)cc2OCc2ccccc2)C[C@@H]2CC[C@H]1N2C(=O)NCc1ccc(N(C)C)cc1,active: 10.7 µM,–
CCCCCSc1cc(OC)c(CCNC)cc1OC,"inconclusive: 13.5 µM [inhibitor, partial curve]",–
O=C1NC(=S)NC(=O)C1=Cc1ccc(Br)s1,–,inactive: -0.756%
CCOc1cc2c(cc1OCC)-n1cccc1C(c1ccc(F)cc1)NC2 (centres undefined),–,inactive: -7.78%
C=C1C(=O)O[C@@H]2C[C@@H](C)[C@@H]3C=CC(=O)[C@@]3(C)[C@@H](OC(=O)CC(=O)O[C@H]3[C@@H]4C(=C)C(=O)O[C@@H]4C[C@@H](C)[C@@H]4C=CC(=O)[C@]43C)[C@H]12,active: 8.49 µM,–
COC(=O)C1=C(C)NC(C)=C(C(=O)OC)C1c1ccccc1[N+](=O)[O-],active: 10.7 µM,–
Cc1c(N=Nc2c(O)[nH]c(=O)[nH]c2=O)c(=O)n(-c2ccccc2)n1C,active: 2.13 µM,–
CCCCCCCSc1cc(OC)c(CCN(C)C)cc1OC,"inconclusive: 12 µM [inhibitor, partial curve]",–
Cc1nc2ccccc2c(=O)n1-c1ccc(Cl)cc1[N+](=O)[O-],–,inactive: -0.976%
O=[N+]([O-])c1cc(C(F)(F)F)c(Cl)c([N+](=O)[O-])c1Nc1ncc(C(F)(F)F)cc1Cl,"inconclusive: 19 µM [inhibitor, single point]",–
O=C1NC(=S)N(c2ccccc2)C(=O)/C1=C/c1ccco1,"inconclusive: 16.9 µM [inhibitor, single point]",–
Cc1ccc(N2C(=O)NC(=O)/C(=C/c3ccc(OC(=O)c4cccs4)cc3)C2=O)cc1,"inconclusive: 30.1 µM [inhibitor, single point]",–
NC(Cc1cc(O)c(O)cc1O)C(=O)O (centres undefined),"inconclusive: 21.3 µM [inhibitor, single point]",–
O=C1NCc2c1c1c3ccccc3[nH]c1c1[nH]c3ccccc3c21,"inconclusive: 2.69 µM [inhibitor, partial curve]",–
Cc1c(C(=O)c2cccc3ccccc23)c2cccc3c2n1[C@H](CN1CCOCC1)CO3,–,inactive: -29.2%
NCCc1cc(O)c(O)cc1O,"inconclusive: 16.9 µM [inhibitor, single point]",–
COc1cc(CNc2ccc3[nH]c(=O)[nH]c3c2)ccc1OCc1ccccc1C,"inconclusive: 16.9 µM [inhibitor, partial curve]",–
CCOc1cccc(=NC2CCCCC2)c2c(C)[nH]c(C)c12,"inconclusive: 15.1 µM [inhibitor, partial curve]",–
Cc1c(C)c2c(OCC(=O)N[C@@H](C)C(=O)O)cc3c(c2oc1=O)CCC(C)(C)O3,"inconclusive: 21.3 µM [inhibitor, single point]",–
NCCNc1ccc([N+](=O)[O-])c2cccnc12,"inconclusive: 19 µM [inhibitor, single point]",–
CCOC(=O)c1cc2c(cn1)[C@@H](CCO)NC2,–,inactive: -5.64%
COC(=O)C1=C(c2cccc(OCc3ccccc3)c2)C[C@@H]2CC[C@H]1N2C(=O)NCCCc1ccccc1,–,inactive: -1.51%

# Some of these compounds in order of length of the SMILES, low to high.
SMILES,Potency,"activity change, negative = inhibition"
Cc1c(C)c2c(OCC(=O)N[C@@H](C)C(=O)O)cc3c(c2oc1=O)CCC(C)(C)O3,"inconclusive: 21.3 µM [inhibitor, single point]",–
O=[N+]([O-])c1cc(C(F)(F)F)c(Cl)c([N+](=O)[O-])c1Nc1ncc(C(F)(F)F)cc1Cl,"inconclusive: 19 µM [inhibitor, single point]",–
COC(=O)C1=C(c2ccc(F)cc2OCc2ccccc2)C[C@@H]2CC[C@H]1N2C(=O)NCc1ccc(N(C)C)cc1,active: 10.7 µM,–
